Experimental data as given in publication PMC8364028.

Protein sequences, listed by entry. Tags and fused reporters are not part of them.
UniProt P04406: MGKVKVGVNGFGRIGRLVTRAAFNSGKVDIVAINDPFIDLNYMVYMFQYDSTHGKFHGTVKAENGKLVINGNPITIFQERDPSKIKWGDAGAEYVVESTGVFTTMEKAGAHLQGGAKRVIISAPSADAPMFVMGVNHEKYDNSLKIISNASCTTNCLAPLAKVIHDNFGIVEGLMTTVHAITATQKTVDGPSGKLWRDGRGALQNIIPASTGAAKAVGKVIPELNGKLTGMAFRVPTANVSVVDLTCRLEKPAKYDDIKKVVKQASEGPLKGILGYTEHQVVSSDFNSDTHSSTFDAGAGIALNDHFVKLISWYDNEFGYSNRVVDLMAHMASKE

B1: hnRNPM (protein, UniProt P52272 1-730)
chain: MAAGVEAAAEVAATEIKMEEESGAPGVPSGNGAPGPKGEGERPAQNEKRKEKNIKRGGNRFEPYANPTKRYRAFITNIPFDVKWQSLKDLVKEKVGEVTYVELLMDAEGKSRGCAVVEFKMEESMKKAAEVLNKHSLSGRPLKVKEDPDGEHARRAMQKVMATTGGMGMGPGGPGMITIPPSILNNPNIPNEIIHALQAGRLGSTVFVANLDYKVGWKKLKEVFSMAGVVVRADILEDKDGKSRGIGTVTFEQSIEAVQAISMFNGQLLFDRPMHVKMDERALPKGDFFPPERPQQLPHGLGGIGMGLGPGGQPIDANHLNKGIGMGNIGPAGMGMEGIGFGINKMGGMEGPFGGGMENMGRFGSGMNMGRINEILSNALKRGEIIAKQGGGGGGGSVPGIERMGPGIDRLGGAGMERMGAGLGHGMDRVGSEIERMGLVMDRMGSVERMGSGIERMGPLGLDHMASSIERMGQTMERIGSGVERMGAGMGFGLERMAAPIDRVGQTIERMGSGVERMGPAIERMGLSMERMVPAGMGAGLERMGPVMDRMATGLERMGANNLERMGLERMGANSLERMGLERMGANSLERMGPAMGPALGAGIERMGLAMGGGGGASFDRAIEMERGNFGGSFAGSFGGAGGHAPGVARKACQIFVRNLPFDFTWKMLKDKFNECGHVLYADIKMENGKSKGCGVVKFESPEVAERACRMMNGMKLSGREIDVRIDRNA

Molecular target: T1, Maspin (SERPINB5) (human (endogenous in MCF-10A)) (UniProt P36952)
T1 sequence: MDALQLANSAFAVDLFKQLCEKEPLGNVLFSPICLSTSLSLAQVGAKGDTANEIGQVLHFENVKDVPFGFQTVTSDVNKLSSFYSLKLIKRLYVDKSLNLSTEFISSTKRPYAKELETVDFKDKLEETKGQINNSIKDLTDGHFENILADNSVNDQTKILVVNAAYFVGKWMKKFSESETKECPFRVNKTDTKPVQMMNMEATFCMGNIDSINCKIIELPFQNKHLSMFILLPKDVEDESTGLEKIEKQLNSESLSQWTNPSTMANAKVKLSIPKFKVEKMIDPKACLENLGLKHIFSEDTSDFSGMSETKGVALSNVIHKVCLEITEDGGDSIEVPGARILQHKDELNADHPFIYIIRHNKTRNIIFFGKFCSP
Test: affinity purification with mass spectrometry; starved MCF-10A cells treated with EGF for 5, 15 and 60 min; sonicated in detergent-free buffer A (1.5 mM EGTA, 1 mM EDTA, 1 mM DTT); 500 µg extract, IP with anti-maspin, sepharose G beads; LTQ-Orbitrap Velos; proteins found only in EGF-treated samples

Molecule | binding
GAPDH (glyceraldehyde-3-phosphate dehydrogenase) (from UniProt P04406 1-335) (enzyme) | binds
hnRNP E (human (endogenous in MCF-10A)) | binds
hnRNP H (human (endogenous in MCF-10A)) | binds
B1 | binds

These are yes or no findings as the source states them, for the method shown. Binding seen in cells or lysates may run through a third protein. Here binding means that the protein was enriched with, or labelled near, the bait; the list need not be complete.
